This passage reports binding results from PMC12827643.

In this experiment the target is T1, RANK (mouse (endogenous in RAW264.7)) (UniProt O35305).
T1 sequence: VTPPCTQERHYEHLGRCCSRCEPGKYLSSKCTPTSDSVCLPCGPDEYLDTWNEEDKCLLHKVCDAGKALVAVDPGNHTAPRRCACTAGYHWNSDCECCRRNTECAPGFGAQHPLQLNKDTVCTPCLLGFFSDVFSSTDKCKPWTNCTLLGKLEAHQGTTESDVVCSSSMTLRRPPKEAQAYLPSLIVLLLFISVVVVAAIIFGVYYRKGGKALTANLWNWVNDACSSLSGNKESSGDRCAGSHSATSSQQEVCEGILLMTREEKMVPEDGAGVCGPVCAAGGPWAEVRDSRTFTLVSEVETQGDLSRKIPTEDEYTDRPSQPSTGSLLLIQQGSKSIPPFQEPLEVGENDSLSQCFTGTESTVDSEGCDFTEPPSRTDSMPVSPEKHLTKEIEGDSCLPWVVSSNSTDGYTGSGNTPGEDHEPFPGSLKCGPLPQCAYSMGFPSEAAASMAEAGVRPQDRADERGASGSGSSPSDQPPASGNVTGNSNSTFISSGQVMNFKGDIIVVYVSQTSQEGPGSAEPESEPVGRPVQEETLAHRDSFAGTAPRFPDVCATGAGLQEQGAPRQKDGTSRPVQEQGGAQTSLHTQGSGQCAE
Put plainly: co-IP; RAW264.7 lysate precipitated with 2 ug anti-RANK antibody overnight at 4 °C, protein A/G-agarose, Western blot for TRAF6; cells treated with RANKL with or without CXCL13. (In general: In western blotting, separated proteins are transferred to a membrane and probed.)

Results are given in words; binding and its absence hold for the method and conditions named. Binding seen in cells or lysates may run through a third protein. Some entries that bind do so weakly or less than the wild type.

B1: TNF receptor-associated factor 6 (TRAF6) (protein, UniProt P70196 1-530)
chain: MSLLNCENSCGSSQSSSDCCAAMAASCSAAVKDDSVSGSASTGNLSSSFMEEIQGYDVEFDPPLESKYECPICLMALREAVQTPCGHRFCKACIIKSIRDAGHKCPVDNEILLENQLFPDNFAKREILSLTVKCPNKGCLQKMELRHLEDHQVHCEFALVNCPQCQRPFQKCQVNTHIIEDCPRRQVSCVNCAVSMAYEEKEIHDQSCPLANIICEYCGTILIREQMPNHYDLDCPTAPIPCTFSVFGCHEKMQRNHLARHLQENTQLHMRLLAQAVHNVNLALRPCDAASPSRGCRPEDPNYEETIKQLESRLVRQDHQIRELTAKMETQSMYVGELKRTIRTLEDKVAEMEAQQCNGIYIWKIGNFGMHLKSQEEERPVVIHSPGFYTGRPGYKLCMRLHLQLPTAQRCANYISLFVHTMQGEYDSHLPWPFQGTIRLTILDQSEALIRQNHEEVMDAKPELLAFQRPTIPRNPKGFGYVTFMHLEALRQGTFIKDDTLLVRCEVSTRFDMGGLRKEGFQPRSTDAGV
For B1, the binding entry is “binds”.
